In series [1] the target is His-HspR (Campylobacter jejuni) (UniProt Q0P926). The experiment in a line: DNase I footprinting. To be noted: 5 mM Tris-HCl pH 8.0, 60 mM NaCl, 5 mM KCl, 5 mM MgCl2, 0.2 mM DTT, 0.01% NP-40, 10% glycerol, 200 ng salmon sperm DNA in 50 uL, room temperature, 15 min, recombinant protein, protein details: N-terminal 6xHis (pET15b), label: 5'-32P, probe letters rebuilt from the primers and the genome, part of a longer ….

Series [2] concerns the target His-HrcA (Campylobacter jejuni) (UniProt Q9PPG2). The experiment in a line: DNase I footprinting. Conditions: 5 mM Tris-HCl pH 8.0, 60 mM NaCl, 5 mM KCl, 5 mM MgCl2, 0.2 mM DTT, 0.01% NP-40, 10% glycerol, 200 ng salmon sperm DNA in 50 uL, room temperature, 15 min, recombinant protein, residues 1-264, protein details: N-terminal 6xHis (pET15b), label: 5'-32P, probe letters rebuilt from the primers and the genome, part of a longer molecule.

For at least one entry, the source does not settle the construct or the ends of the probe.

In the case of “CCAATAGGTGCATTATCCAAAAGATAAGTTTGAATAATAGACTCTAAAATCAAATCCTTTTTATCTCGACTTTTCATCATATTTTCCTTCATATCTAGCACTCTATTTTTTGATTGCTAGATATATTATACAACATTGAGTGTTATTTTGTCAAGTATAAATATAAAAAAATATACTTAATTTTATTTAGTCAATATGACTAAAGTTTTATTAGTTACTTTTTTATAAGGATAAGCTATCTTTTAAGATTGAAAATGCAATGATAAAAATAAGATGAAAATTTTAAATTGAATTGATTGTCTAGTTTTTTAAAGGTATAAGATATTAAAATAAAAAACCAAAGAAGCCTTTGAAAGCTCTTTGGTTCTTCTATCAAAGCTTAAAAGTTACCATTGATAGAAATATACATTCTTCTTCCTTC (double strand) [Phrc]”, the binding result in series [1] (0-180 nM HspR) and in series [2] (0-360 nM HrcA) was “binds” in each case.
With “CGCGTTTAACTAGAACACGCTTTCCTAAAGGTTGAAAATTCATTTTTGTCCATCCTTAAAAATATTGATTTTAGCACTCTTTAATTTAGAGTGATAATATCATACTATAAAAAATGAATTTTGTCAATACTTTAAATTAAAATATTTATAAAAGTTTAGTTTTATAGACTAAAGTTATTTTATAAAATAAACTAAAGGATAAAAATGAAAAAGATTTTTTATGGCATTGTAGCTTTTGTTGTTGTGC (double strand) [Pgro]”, the binding result in series [1] (0-180 nM HspR) is “binds”; in series [1] (with 360 nM HrcA prebound, footprint enhanced vs 360 nM GST control (cooperative)), “binds”; in series [2] (0-360 nM HrcA), “binds”; in series [2] (with 360 nM HspR prebound, footprint enhanced vs 360 nM GST control (cooperative)) it was “binds”.
With “CTTGCAGCAAATAAAGCACTTGCTAAACTTAATGATAAAAAAATCTTTTTCATTTCATTTCCTTTTGTTCTTAAAGATAAATTATCTCGTAAAATATTTTACTGTCTTCATAGTATAAAACCGAAAATTTACAAAATTGTAAATAAAACCTTGAGTGATAAAAATTTATAAAACTTGATTGACTTAGGCTAAAGTTTATGTTATAATTTAATCCTCTATATAATCAAGTAAAAATTTTTAAGGAAATATAACATGAATAGTTTATACGAAACTCTTGGAGTTAGC (double strand) [Pcbp]”, the binding result in series [1] (protection from 22 nM HspR (-20 to -55), second region at higher HspR) is listed as “binds”.
For the sequence “GATATTCAAAGTATAGAAGAATTAAACAAGGCTATAGATATGTTTATGAAATAATCTAAAATTAGTCATTTGTCCTATTATTTAAAAAATTTTACTCAATTAACTTGACATTATATGACTAAAGTTATATAATAGCAAGTCTATAAACTAAATAAAGGATAAAACATGGCAAATATACAAGATTTTTTAACTGATAATATGC (double strand) [Pclp]”, the binding result in series [1] (0-180 nM HspR) is listed as “binds”.

The record behind these values is article PMC7464140, “Cooperative Regulation of Campylobacter jejuni Heat-Shock Genes by HspR and HrcA” (Microorganisms, 2020).
